{"source": "patent US10111853B2", "about": "“Compounds, compositions, and methods for the treatment of cancers” (PLACON THERAPEUTICS, INC., priority 2012, dated 2018)", "assay": "Drug load (gravimetric, GF-AAS) and encapsulation efficiency of nanoparticles", "format": "physicochemical", "description": "The polymer composition was varied by the ratio of the PLA or PLGA polymer to PLA-PEG or PLGA-PEG copolymer, as well as the PLA molecular weight (25-109 kDa). […] The oil phase was then slowly added to the continuously stirred aqueous phase containing an emulsifier (such as polysorbate 80 a.k.a. Tween® 80) at 10/90% or 20/80% v/v oil/water ratio and a coarse emulsion was prepared using a rotor-stator homogenizer or an ultrasound bath. The course emulsion was then processed through a high-pressure homogenizer (operated at 5,000 or 10,000 psi) for N=2 or 4 passes to form a nanoemulsion. In process (2) the polymers and the drug were dissolved in an organic solvent miscible with water (such as acetone) and added slowly to a continuously stirred aqueous phase with or without a stabilizer (such as polysorbate 80). In both processes (1) and (2) the nanoemulsion formed was quenched (by 5- or 10-fold dilution with cold (0-5° C.) or room temperature deionized water) to remove the major portion of the organic solvent resulting in hardening of the emulsion droplets and formation of a nanoparticle suspension, which was then concentrated and purified with deionized water containing or not surfactants using tangential flow filtration (500 kDa MWCO, mPES membranes).\nThe actual drug load was determined gravimetrically by transferring 1 mL of the nanoparticle suspension to a 4 mL glass vial and drying under vacuum on a Rotavapor® to determine the amount of total remaining solids. The drug content was then determined by reconstituting the dried sample in an organic solvent (such as N′N′-dimethylformamide) and measuring the total amount of platinum using graphite furnace atomic adsorption spectroscopy (GF-AAS). Encapsulation efficiency was calculated as the ratio between the actual and the theoretical drug load. The yield was determined based on the ratio between the encapsulated and used compound amounts. In-vitro release was studied by incubating the nanoparticle suspension in phosphate buffered saline (PBS) containing a solubilizer such as 1% hydroxypropyl beta cyclodextrin for 24 h at 37° C. mixed continuously in a water shaking bath. Samples were taken at different time points and spun with an ultracentrifuge at 1,000,000×g to separate the nanoparticles from the dissolution medium. The supernatant was then analyzed using GF-AAS or HPLC to determine the active content as a function of time.", "note": "For at least one compound, name, drawing or mass did not settle the structure.", "data": [{"compound": "Cc1ccc(C(=O)[O][Pt]([NH2])([NH2])([Cl])([Cl])[O]C(=O)c2ccc(C)cc2C)c(C)c1", "note": "[Compound 45]", "values": [{"measurement": "Max DL, %", "setting": "maximum drug load, according to Example 11", "value": 2.6, "unit": "%"}, {"measurement": "Max EE, %", "setting": "maximum encapsulation, according to Example 11", "value": 37, "unit": "%"}, {"measurement": "encapsulation efficiency (in words)", "setting": "statement on Table 4", "value": "increased encapsulation efficiency"}, {"measurement": "maximum drug loading (in words)", "setting": "statement on Table 4", "value": "increased maximum drug loading"}]}]}
